Binding data for 2 substances are collected here from article PMC5897363.

Protein sequences, listed by entry. Tags and fused reporters are not part of them.
UniProt Q91YD9: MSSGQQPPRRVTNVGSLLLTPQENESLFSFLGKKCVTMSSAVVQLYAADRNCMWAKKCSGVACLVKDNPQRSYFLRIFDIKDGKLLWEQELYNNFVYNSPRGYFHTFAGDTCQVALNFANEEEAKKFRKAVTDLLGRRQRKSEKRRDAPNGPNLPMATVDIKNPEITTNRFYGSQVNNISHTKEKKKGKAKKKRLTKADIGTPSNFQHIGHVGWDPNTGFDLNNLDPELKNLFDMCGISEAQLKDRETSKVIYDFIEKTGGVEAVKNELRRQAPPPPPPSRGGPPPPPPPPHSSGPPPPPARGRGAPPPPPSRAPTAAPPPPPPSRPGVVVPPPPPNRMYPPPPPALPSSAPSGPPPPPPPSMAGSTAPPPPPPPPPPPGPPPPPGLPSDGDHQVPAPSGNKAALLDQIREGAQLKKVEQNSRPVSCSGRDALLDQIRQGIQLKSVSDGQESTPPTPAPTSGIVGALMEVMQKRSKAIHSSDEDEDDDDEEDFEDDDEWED
UniProt Q9Z148: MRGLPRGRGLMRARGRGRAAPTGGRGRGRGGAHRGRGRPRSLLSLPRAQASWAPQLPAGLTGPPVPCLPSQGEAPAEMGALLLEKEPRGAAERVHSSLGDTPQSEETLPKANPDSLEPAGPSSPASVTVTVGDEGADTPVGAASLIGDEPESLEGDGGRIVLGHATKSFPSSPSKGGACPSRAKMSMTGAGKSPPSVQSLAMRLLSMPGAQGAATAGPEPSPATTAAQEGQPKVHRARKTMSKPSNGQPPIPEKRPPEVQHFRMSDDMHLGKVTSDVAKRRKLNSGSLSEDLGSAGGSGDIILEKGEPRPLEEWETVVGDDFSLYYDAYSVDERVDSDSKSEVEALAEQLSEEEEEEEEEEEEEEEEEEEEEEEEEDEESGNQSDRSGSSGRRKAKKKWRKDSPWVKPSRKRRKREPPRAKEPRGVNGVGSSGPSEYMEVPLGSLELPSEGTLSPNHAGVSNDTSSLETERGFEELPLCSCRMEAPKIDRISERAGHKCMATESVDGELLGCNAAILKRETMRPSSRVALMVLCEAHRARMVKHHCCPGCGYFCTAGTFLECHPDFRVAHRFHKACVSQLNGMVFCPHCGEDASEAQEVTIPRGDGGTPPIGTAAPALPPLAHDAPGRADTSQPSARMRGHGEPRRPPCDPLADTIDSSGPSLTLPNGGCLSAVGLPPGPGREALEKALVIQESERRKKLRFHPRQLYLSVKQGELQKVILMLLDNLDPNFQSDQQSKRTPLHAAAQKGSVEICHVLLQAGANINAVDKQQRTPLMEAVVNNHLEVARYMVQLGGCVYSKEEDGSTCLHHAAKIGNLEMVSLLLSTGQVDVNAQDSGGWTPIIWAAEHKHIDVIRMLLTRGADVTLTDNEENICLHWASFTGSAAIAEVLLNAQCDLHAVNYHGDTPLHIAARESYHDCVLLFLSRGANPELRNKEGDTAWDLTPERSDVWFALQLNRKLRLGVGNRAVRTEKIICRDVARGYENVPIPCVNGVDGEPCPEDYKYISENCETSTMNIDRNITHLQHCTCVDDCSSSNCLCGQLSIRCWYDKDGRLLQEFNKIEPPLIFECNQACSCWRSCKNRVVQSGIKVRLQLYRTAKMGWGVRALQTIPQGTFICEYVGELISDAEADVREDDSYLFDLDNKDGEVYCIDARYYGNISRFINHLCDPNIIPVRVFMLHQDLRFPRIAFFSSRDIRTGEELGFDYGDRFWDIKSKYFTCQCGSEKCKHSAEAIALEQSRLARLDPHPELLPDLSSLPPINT

No constants are given. Whether binding was seen depends on the method and setting. In cells and extracts the contact can be indirect. Some binding calls cover weakened binding; strength is not graded here.

The target of test [1] is neural Wiskott-Aldrich syndrome protein (N-WASP) (mouse (endogenous in primary keratinocytes)) (UniProt Q91YD9). As to the kind of experiment: co-IP; nuclear lysates of primary mouse keratinocytes, Nuclear Complex Co-IP Kit (Active Motif); precipitated with anti-N-WASP or anti-G9a and Protein A agarose; IgG as control; blots for G9a, GLP, N-WASP.
The target of test [2] is G9a (mouse (endogenous in primary keratinocytes)) (UniProt Q9Z148). Described as above.

With “G9a (from UniProt Q9Z148 1-1263) (enzyme)”, the binding result in test [1] is listed as “binds”.

With “neural Wiskott-Aldrich syndrome protein (N-WASP) (from UniProt Q91YD9 1-501)”, the binding result in test [2] is given as “binds”.
